Experimental data reported in PubChem BioAssay AID504834 (National Center for Advancing Translational Sciences (NCATS), 2011).
The whole screen tested about 320,000 compounds, of which about 22,000 (6.9%) were called active. This list was built around the results that the source calls inconclusive (neither active nor inactive); the mix of calls is not that of the screen. The call rests on the fitted dose curve; in most records, active means well fitted inhibition curve with a large enough effect; inconclusive means small, poorly fitted or top-dose-only effect, or another doubt; inactive means no such curve, though single readings can be large or run the other way. Where the call is inconclusive, the potency comes from a doubtful curve fit.

test: Primary qHTS for delayed death inhibitors of the malarial parasite plastid, 96 hour incubation; settings: P. falciparum luciferase reporter growth; series mostly up to 28.7 µM
Text: The goal of this screen is to discover new antimalarial compounds that act by inhibiting the development of the apicoplast in the malarial parasite Plasmodium falciparum. The biochemical processes that make this organelle essential for erythrocytic stage parasites are not well understood. However, antibiotics such as azithromycin and tetracycline, which target the apicoplast translational machinery, have a potent antimalarial effect.
We have developed a cell-based assay that measures parasite growth based on the expression of an integrated copy of a firefly luciferase reporter. To detect small molecules that cause this "delayed death" phenotype, erythrocytes infected with the luciferase-expressing parasites were incubated with compounds for either one or two generations, corresponding to 48 and 96 hours, respectively. Compounds that inhibit parasite growth in the second generation, but not the first, should be enriched in antimalarials that target the apicoplast. Growth inhibition is detected by a decrease in luciferase activity.
Assay Provider: David Fidock and Eric Ekland, Columbia University
Keywords: NIH Roadmap, MLPCN, MLI, MLSMR, qHTS, NCGC, qHTS, malaria, luciferase, viability
Four microliters of infected erythrocytes (2% hematocrit, 0.05% parasitemia final concentration) in culture medium were dispensed and the plates incubated for 96 hours at 37 C in 5% CO2. Two microliters of luciferase detection reagent was added and luminescence was detected by a ViewLux (PerkinElmer) reader.
Potency means the concentration at half of the fitted maximal effect.

Compound	Potency
CC(=O)NCCn1c(SCc2ccc(C)cc2C)nc2ccccc2c1=O	inactive
Cc1ccccc1OCC(=O)Nc1nnc(S(=O)(=O)N2CCCC2)s1	inactive
O=C(c1ccc(CS(=O)(=O)c2ccc(Br)cc2)o1)N1CCCC1	active: 7.38 µM
CC(=O)CCS(=O)(=O)c1ccc(NC(C)=O)cc1	inactive
S=C(NCc1ccccc1)N1CCN(C(=S)NCc2ccccc2)CC1	inactive
C/C(=N\NC(=O)C(N)=O)c1ccc(Br)cc1	inconclusive: 10.4 µM [inhibitor, single point]
CCc1nnc(NC(=O)CCNC(=O)c2ccco2)s1	inactive
Cc1ccc(S(=O)(=O)NCC(=O)NCC(=O)OCC(=O)N2CC(=O)Nc3ccccc32)cc1C	inactive
O=S(Cc1ccc(Br)cc1)Cc1nnc(SCc2c(Cl)cccc2Cl)n1-c1ccccc1 (stereo not drawn)	inconclusive: 10.4 µM [inhibitor, single point]
CC(C)(C)C(=O)Nc1ccc(NC(=O)c2ccco2)nc1	inactive
O=C(c1ccc(N2CCCC2=O)cc1)N1CCN(c2ccccc2O)CC1	inconclusive: 11.7 µM [inhibitor, single point]
CCc1ccc(OCC(O)CN2CCN(CCO)CC2)cc1 (stereo not drawn)	inactive
Cc1ccc(C2=NS(=O)(=O)N(C)C(C(=O)NCc3ccccc3)=C2)cc1	inconclusive: 3.7 µM [inhibitor, single point]
C=C(C)C(=O)Oc1ccc(N2C(=O)[C@@H]3C4C=CC(C4)[C@@H]3C2=O)cc1	inactive
CC(C)c1nc(Cl)c(C#N)c2c1CSC(C)(C)C2	inactive
O=C(COC(=O)CNS(=O)(=O)c1c(F)cccc1F)NC(=O)NC1CCCCC1	inactive
CCN(CC)c1ccc(N2C(=O)/C(=C/c3cccnc3)SC2=S)cc1	inconclusive: 2.94 µM [inhibitor, full curve, poor fit]
COc1ccc(C2=CC(=O)C[C@H](c3ccc(F)cc3)C2)cc1OC	inconclusive: 5.22 µM [inhibitor, partial curve, poor fit]
Cc1ccc(CS(=O)Cc2ccc(C(=O)NCc3ccc4c(c3)OCO4)o2)cc1 (stereo not drawn)	active: 13.1 µM
COC(=O)[C@H](Cc1ccccc1)NC(=O)N1CCN(c2ccccc2)CC1	inactive
CC1CN(c2oc(-c3ccco3)nc2C#N)CC(C)O1 (stereo not drawn)	inconclusive: 11.7 µM [inhibitor, single point]
CCOc1ccc(-c2nnc(-c3ccncc3)o2)cc1	active: 2.94 µM
CCOc1ccc(-c2cc(C(=O)NCCCN3CCCC3)c3ccccc3n2)cc1	inactive

Compound	Potency
Cc1ccc(-c2nnn(CC(=O)N(Cc3cccs3)C(C(=O)NC3CCCC3)c3ccncc3)n2)cc1 (stereo not drawn)	inconclusive: 13.1 µM [inhibitor, single point]
CC(C)(C)C(=O)NC1CC2CCCC(C1)N2C(=O)Nc1ccccc1F (stereo not drawn)	inactive
Cc1nn(C)cc1S(=O)(=O)N1CCN(Cc2ccccc2Cl)CC1	inconclusive: 18.5 µM [inhibitor, single point]
Cn1nc(C(C)(C)C)cc1C(=O)Nc1nc2c(s1)C(=O)CC(C)(C)C2	inconclusive: 16.5 µM [inhibitor, single point]
CC(C)COCC(CN(Cc1ccccc1)c1ccccc1)N1CCCC1 (stereo not drawn)	inconclusive: 3.38 µM [inhibitor, full curve]
COc1ccc(C(CNC(=O)c2cccc(S(=O)(=O)Nc3ccc(F)cc3)c2)N(C)C)cc1 (stereo not drawn)	active: 9.28 µM
Cc1ccccc1OC(C)C(=O)NC1CCCC1 (stereo not drawn)	inactive
Cc1cc(=O)oc2cc3oc(=O)cc(C)c3cc12	active: 4.65 µM
O=C(Nc1ccc(F)cc1)C(c1ccccc1)N1CCN(S(=O)(=O)c2c(F)cccc2F)CC1 (stereo not drawn)	inconclusive: 10.4 µM [inhibitor, partial curve, poor fit]
COC(=O)[C@@]12CCCN1[C@H](c1ccc(-c3ccc4c(c3)OCO4)c(OC)c1)[C@H]1C(=O)N(C)C(=O)[C@H]12	inconclusive: 2.08 µM [inhibitor, partial curve, poor fit]
NC(=O)CC(NC(=O)Cc1cccc2ccccc12)c1ccc(NCCCN2CCCC2=O)c([N+](=O)[O-])c1 (stereo not drawn)	inconclusive: 3.7 µM [inhibitor, full curve, poor fit]
CCN(C(=O)CSc1nc2ccccc2c(=O)n1Cc1ccc(C)cc1)C1CCS(=O)(=O)C1 (stereo not drawn)	inconclusive: 8.28 µM [inhibitor, partial curve, poor fit]
Cc1ccc(/C=c2\sc3nc(-c4ccccc4Br)nn3c2=O)o1	active: 11.7 µM
O=C(NCc1ccccc1OC(F)(F)F)C1CCC(=O)N(C2CC2)C1 (stereo not drawn)	active: 11.7 µM
CCOC(=O)C(C)Sc1nnc(-c2ccccc2O)n1Cc1ccccc1 (stereo not drawn)	inconclusive: 0.329 µM [inhibitor, partial curve, poor fit]
O=C(NCCc1csc(-c2cccnc2)n1)c1ccccc1	inconclusive: 9.28 µM [inhibitor, single point]
O=S(=O)(c1ccc2nnn(OCc3ccccc3)c2c1)N1CCOCC1	inactive
O=C(CCC1CCCC1)N1CCN(C2CCCC2)CC1	inconclusive: 20.8 µM [inhibitor, single point]
COc1ccc(N(CC(=O)NC2CCCC2)C(=O)CS(=O)CC(=O)Nc2ccc3c(c2)OCO3)cc1 (stereo not drawn)	inconclusive: 14.7 µM [inhibitor, single point]
CCc1ccc(N(CC(=O)NC2CCCC2)C(=O)CCC(=O)Nc2cc(C)on2)cc1	inconclusive: 2.94 µM [inhibitor, full curve, poor fit]
CCOCCCNC(=O)N[C@H](C(=O)OC)C(C)CC (stereo partly drawn)	inconclusive: 10.4 µM [inhibitor, single point]
CC(C)(C)OC(=O)[C@H](Cc1ccccc1)NC(=O)c1[nH]cnc1C(=O)Nc1cccc(Cl)c1	inconclusive: 11.7 µM [inhibitor, partial curve]
Cc1cccc(NC(=O)CSc2nnc(CSc3nc(C)cc(C)n3)n2Cc2ccco2)c1	active: 14.7 µM

Quoted from the listing.
Potency with Cc1ccc(-c2nnn(CC(=O)N(Cc3cccs3)C(C(=O)NC3CCCC3)c3ccncc3)n2)cc1 (stereo not drawn) is entered as inconclusive: 13.1 µM [inhibitor, single point]
Potency with O=C(CCC1CCCC1)N1CCN(C2CCCC2)CC1 is entered as inconclusive: 20.8 µM [inhibitor, single point]
Potency with O=S(Cc1ccc(Br)cc1)Cc1nnc(SCc2c(Cl)cccc2Cl)n1-c1ccccc1 (stereo not drawn) is entered as inconclusive: 10.4 µM [inhibitor, single point]

Next entries.

Compound	Potency
Cc1ccc(CN2CCCC(CO)(Cc3ccccc3C)C2)s1 (stereo not drawn)	inconclusive: 20.8 µM [inhibitor, single point]
COc1ccc(C(CNCC(O)COc2c(C)ccc(C)c2C)N(C)C)cc1 (stereo not drawn)	inconclusive: 10.4 µM [inhibitor, partial curve, poor fit]
CCn1nccc1C(=O)Nc1nc2ccccc2n1CCN1CCCCC1	inconclusive: 0.262 µM [inhibitor, partial curve, poor fit]
COc1ccc(CN2C(=O)C(C)N(C(=O)c3c(F)cccc3F)c3ccccc32)cc1 (stereo not drawn)	active: 2.08 µM
COc1ccccc1Cn1c(=S)[nH]c2cc(C(=O)N3CCCC3)ccc2c1=O	inconclusive: 18.5 µM [inhibitor, single point]
Clc1ccc(-c2nnc(NCc3ccccc3)c3ccccc23)cc1	inconclusive: 2.62 µM [inhibitor, single point]
Cc1c(Cc2ccccc2)c(=O)oc2c(C)c(OC(C)C(=O)N[C@@H](Cc3ccccc3)C(=O)O)ccc12 (stereo partly drawn)	inconclusive: 6.57 µM [inhibitor, partial curve, poor fit]
COc1cc(C(CCN2CCCC2)c2c(OC)cc(OC)c3ccc(=O)oc23)cc(OC)c1OC (stereo not drawn)	active: 10.4 µM
Cc1ccc(NCC(=O)Nc2cccc(S(=O)(=O)N(C)C)c2)c(Cl)c1	inconclusive: 13.1 µM [inhibitor, single point]
O=C(C1=C(O)C(=O)N(CCCN2CCOCC2)C1c1ccc(Cl)cc1)c1cc2ccccc2o1 (stereo not drawn)	inactive
O=C(Nc1ccc(Oc2cccnc2)nc1)c1ccc(C(F)(F)F)cc1	inconclusive: 11.7 µM [inhibitor, partial curve, poor fit]
COc1cccc2c1OC[C@@H](CO)[C@H]2N(C)C(=O)Nc1ccc(Cl)cc1	inconclusive: 0.0093 µM [inhibitor, full curve, poor fit]
CCCCN=C(N)/C(C(=O)OCC)=C(\O)c1ccc(OC)cc1	inconclusive: 0.928 µM [inhibitor, partial curve, poor fit]
CC(C)(C)c1ccc(OCCCC(=O)Nc2cccc(S(=O)(=O)N3CCOCC3)c2)cc1	inconclusive: 13.1 µM [inhibitor, single point]
COc1ccc(NC(=O)[C@H](Cc2c[nH]c3ccccc23)NC(=O)[C@@H]2Cc3ccccc3CN2)cc1	inconclusive: 0.104 µM [inhibitor, full curve, poor fit]
COC(=O)[C@@]12CCCN1[C@H](c1ccc(-c3ccc(Cl)c(Cl)c3)cc1)[C@H]1C(=O)N(C)C(=O)[C@H]12	inconclusive: 18.5 µM [inhibitor, single point]
O=C(/C=C(\c1ccc(Cl)cc1)n1cncn1)c1ccc(Cl)cc1	inconclusive: 9.28 µM [inhibitor, partial curve, poor fit]
O=C(Cn1cnc2ccccc2c1=O)N1CCN(Cc2ccc3c(c2)OCO3)CC1	inconclusive: 18.5 µM [inhibitor, single point]
O=C(NC1CCc2ccccc21)C1CCN(S(=O)(=O)c2ccc(Cl)cc2)CC1 (stereo not drawn)	inconclusive: 2.62 µM [inhibitor, full curve]
Cc1ccc(N2C(=O)N(CC(=O)Nc3ccc(C)c(C)c3)C(=O)C2C)cc1 (stereo not drawn)	inactive
O=C(Cc1ccc(Cl)cc1)Nc1ccc(Br)cn1	inconclusive: 14.7 µM [inhibitor, partial curve]
Cc1c(Nc2cc(N3CCOCC3)c3nonc3c2[N+](=O)[O-])c(=O)n(-c2ccccc2)n1C	inconclusive: 11.7 µM [inhibitor, single point]
